Data from PubChem BioAssay AID493014 (National Center for Advancing Translational Sciences (NCATS), 2011).
Some of the results follow. Further columns of the screen follow, without active or inactive calls. Compounds called inactive in the main read-out are mostly missing here. Potencies come from curve fits of mixed quality, noted in brackets.

Experiment: qHTS Assay to Find Inhibitors of Chronic Active B-Cell Receptor Signaling
Details: ABC-DLBCL IkBa-CBG/CBR reporter, luminescence ratio (green luciferase fused to IkBa over red control in TMD8 lymphoma cells), 4 h
Outline: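 Concentration-response series (up to 46 uM) were applied to TMD8 dual-reporter cells for 4 h at 37C with doxycycline. Green/red ratio, after filter-overlap correction, defined %Activity; red signal alone was normalised to basal cells and zero luminescence.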

[1] = measured here: CBR red luminescence, cell number
[2] = measured here: IkBa-CBG green luminescence

Row | Structure (SMILES) | AC50 [1] | AC50 [2]
1 | S=C(Nc1ccc(Oc2ccccc2)cc1)NC1CCCCCC1 | 20.6 µM [falling, single point] | –
2 | O=C(O)c1ccc(COc2ccc(CO)cc2Cl)cc1 | 23.1 µM [falling, partial curve] | –
3 | Cc1nn(C(C)C(=O)NC2C(=O)N3C(C(=O)O)=C(CSc4nnnn4C)CSC23)cc1Cl (configuration not stated) | 35.5 µM [falling, single point] | –
4 | N#Cc1cc2c(nc1SCc1ccc(Cl)cc1)CCCC2 | 5.17 µM [falling, full curve] | –
5 | CC(NC(=O)c1ccc(-c2cc(C(F)(F)F)ccc2Cl)o1)c1ccccc1 (configuration not stated) | 29.1 µM [falling, single point] | –
6 | CN(C)c1ccc(Nc2ccc([N+](=O)[O-])cn2)cc1 | 2.51 µM [rising, partial curve, poor fit] | –
7 | CC1CCC2(CC1)NC(=O)N(CC(=O)Nc1cccnc1Cl)C2=O (configuration not stated) | 2.31 µM [rising, partial curve, poor fit] | –
8 | CN(C)CCNc1ncnc2sc(-c3ccccc3)cc12 | 35.5 µM [falling, single point] | –
9 | O=C1CCCC(O)=C1N=Nc1ccc(C(=O)O)cc1 | 12.6 µM [falling, partial curve, poor fit] | –
10 | O=C(CSc1ccc(-c2ccc(F)cc2)nn1)N1CCCc2ccccc21 | 29.1 µM [falling, partial curve, poor fit] | –
11 | Fc1ccc(-c2nc3n(n2)Cc2ccccc2-3)cc1 | 18.4 µM [falling, single point] | –
12 | CCCS(=O)(=O)n1nc(-c2ccccc2)cc1N | 6.51 µM [rising, partial curve, poor fit] | –
13 | S=C(NCCCc1ccccc1)Nc1ccc(Cl)cc1 | 0.366 µM [rising, full curve, poor fit] | –
14 | Cc1ccc(S(=O)(=O)/N=C2/C=C(Sc3ncn[nH]3)C(=O)c3ccccc32)cc1 | 5.8 µM [falling, full curve] | –
15 | COCc1cc(=O)n2[nH]c(C)cc2n1 | 35.5 µM [rising, single point] | –
16 | O=C(CC(=O)Nc1cccc(F)c1)Nc1cccc(F)c1 | 35.5 µM [rising, single point] | –
17 | COc1cc2c(cc1OC)C(SC)=NC1(CCCC1)C2 | – | 35.5 µM [falling, single point]
18 | Cc1cc(NC(=O)COc2ccc(C)c(C)c2)no1 | 3.98 µM [rising, single point] | –
19 | O=C(CN1CCCCCC1)Nc1ccc(Br)cc1Br | 20.6 µM [rising, single point] | –
20 | COC(=O)c1ccc(NC(=O)CCCN2C(=O)NC(C)(C)C2=O)cc1 | 16.4 µM [falling, single point] | –
21 | O=C(Nc1ccc(NC(=O)c2cccs2)cc1)c1ccc(Br)o1 | 25.9 µM [rising, single point] | –
22 | COc1ccccc1C(=O)Nc1nc2ccc(S(C)(=O)=O)cc2s1 | 14.6 µM [rising, partial curve, poor fit] | –

Row | Structure (SMILES) | AC50 [1] | AC50 [2]
23 | CSc1nc2nc3c(cn2n1)C(=O)CC(c1ccccc1)C3 (configuration not stated) | 0.13 µM [rising, full curve] | –
24 | O=S(=O)(c1cccc(Cl)c1)n1c(/C=C/c2ccccc2Cl)nc2ccccc21 | 11.2 µM [falling, partial curve, poor fit] | –
25 | O=[N+]([O-])c1ccc(OCc2cnc(Cl)s2)cc1 | 14.1 µM [rising, partial curve, poor fit] | –
26 | CN(C)c1cccc(C(=O)N/N=C/c2ccsc2)c1 | 8.2 µM [falling, partial curve] | –
27 | O=C1Nc2ccccc2N(O)N1c1cc(-c2ccccc2)[nH]n1 | 10 µM [falling, single point] | –
28 | Cc1ccc(CSC2=Nc3ccccc3C3=NC(=O)CN23)cc1 | 5.01 µM [rising, full curve] | –
29 | O=C(N/N=C/c1ccc(-c2ccccc2[N+](=O)[O-])o1)c1cccnc1 | 9.2 µM [falling, partial curve, poor fit] | –
30 | CCCCSc1nc2c(cc1C#N)CCC2 | 18.4 µM [rising, single point] | –
31 | COc1cc(C(=O)OCCCc2cc3ccccc3c(=O)o2)cc(OC)c1OC | 6.51 µM [rising, single point] | –
32 | N#C/C(=C\c1ccc(-c2ccc(C(=O)O)cc2)o1)C(=O)Nc1ccc(F)cc1 | 4.47 µM [falling, partial curve, poor fit] | –
33 | Cc1ccn2c(=O)nc(SCC(=O)Nc3cccc4ccccc34)nc2c1 | 29.1 µM [falling, single point] | –
34 | COc1ccc(CNc2ccc(C)cc2)cc1Br | 20.6 µM [rising, single point] | –
35 | CC(C)CCOc1ccc(C(CC(N)=O)C(=O)O)cc1 (configuration not stated) | 6.51 µM [rising, single point] | –
36 | CC(C)(C)NC(=O)C(c1cccs1)N(C(=O)c1csnn1)c1cccc(F)c1 (configuration not stated) | 0.1 µM [rising, full curve, poor fit] | –
37 | Cc1ccccc1C(=O)O/N=C(\N)Cc1cccs1 | 3.16 µM [rising, full curve, poor fit] | –
38 | COc1ccccc1N=c1oc2cc(O)ccc2cc1C(N)=O | 2.51 µM [falling, partial curve] | –
39 | CC(=O)c1cccc(NC(=O)COc2ccccc2)c1 | 6.51 µM [falling, single point] | –
40 | COc1cc(/C=N/NC(=S)NC(C)C)ccc1OCC(=O)Nc1c(C)cc(C)cc1C | 4.11 µM [rising, full curve, poor fit] | –
41 | CCOC(=O)c1cccc(NC(=O)CSc2nnc(COc3ccccc3)n2CC)c1 | 35.5 µM [falling, single point] | –
42 | Cc1ccc2nc(-c3ccc(SCC(=O)Nc4cc(C)on4)nc3)[nH]c2c1 | 10 µM [falling, partial curve, poor fit] | –
43 | O=C(N1CCN(Cc2ccc3c(c2)OCO3)CC1)C(Cl)(Cl)Cl | 1.58 µM [rising, partial curve] | –
44 | CCOC(=O)N1CCC(NC(=O)c2cccc3c2C(=O)N(Cc2cccnc2)C3)CC1 | 29.1 µM [rising, single point] | –

Row | Structure (SMILES) | AC50 [1] | AC50 [2]
45 | O=C(c1cccc(Cl)c1)c1nn(-c2ccccc2)c(=O)cc1C(F)(F)F | 15.8 µM [falling, single point] | –
46 | CN1C(=O)/C(=C/c2ccccc2OCc2ccc(C(=O)O)cc2)NC1=S | 35.5 µM [falling, single point] | –
47 | CCN1CCN(Cc2c(OC)ccc3ccccc23)CC1 | 5.17 µM [falling, full curve, poor fit] | –
48 | NC(=O)NC(CC(=O)OCC(=O)NC(=O)NCc1ccco1)c1ccc(Cl)cc1 (configuration not stated) | 6.31 µM [falling, partial curve, poor fit] | –
49 | O=C(C1CCN(S(=O)(=O)N2CCC3(CC2)OCCO3)CC1)N1CCOCC1 | 0.58 µM [falling, full curve, poor fit] | –
50 | COc1ccc(-c2csc(NC(=O)c3ccc(S(C)(=O)=O)cc3)n2)cc1 | 6.31 µM [rising, full curve, poor fit] | –
51 | CCN1C(=O)c2cccc3c(S(=O)(=O)NCCc4c[nH]c5ccccc45)ccc1c23 | 29.1 µM [falling, single point] | 29.1 µM [rising, partial curve, poor fit]
52 | CSc1nc(N(C)NC(=O)c2ccc(Cl)cc2)c2ccccc2n1 | 8.2 µM [rising, partial curve] | 6.51 µM [falling, partial curve]
53 | COc1ccccc1NC(=S)NCc1ccccc1 | 6.31 µM [rising, full curve] | –
54 | O=C(NC(=S)Nc1nc(-c2ccc(Br)cc2)cs1)c1cccnc1 | 0.891 µM [rising, full curve] | –
55 | COc1cc([C@H]2OC[C@H]3[C@@H]2CO[C@@H]3c2ccc(O[C@H]3O[C@H](CO)[C@@H](O)[C@H](O)[C@H]3O)c(OC)c2)ccc1O[C@@H]1O[C@H](CO)[C@@H](O)[C@H](O)[C@H]1O | 29.1 µM [rising, single point] | –
56 | CC(=O)Nc1ccc(SCC(=O)NCC2(N3CCCCC3)CCCCC2)cc1 | 16.4 µM [rising, partial curve] | –
57 | Clc1ncccc1-c1nc2ccccc2s1 | 14.1 µM [rising, single point] | –
58 | Cc1ccc(OCC(=O)N2CCN(S(C)(=O)=O)CC2)cc1 | 1.78 µM [rising, full curve] | –
59 | CNC(=O)c1c(NC(=O)CCS(=O)(=O)c2ccc(C)cc2)sc2c1CCN(C(=O)OC)C2 | 29.1 µM [falling, single point] | –
60 | CC(C)(C)C(=O)COC(=O)c1ccccc1O | 0.231 µM [rising, full curve, poor fit] | –
61 | Cc1nn2c(NC(C)C)c3c(nc2c1-c1ccccc1)CCC3 | 35.5 µM [falling, single point] | –
62 | COc1ccc(S(=O)(=O)N2CCc3ccccc32)cc1C(=O)Nc1ccc(C(N)=O)cc1 | 29.1 µM [rising, single point] | –
63 | CCN(CC)C(=O)COC(=O)C1=NN(c2cc(C)ccc2C)C(=O)CC1 | 8.91 µM [rising, single point] | –
64 | COc1ccccc1-c1nnc(Sc2nc([N+](=O)[O-])nn2C)o1 | 9.2 µM [falling, partial curve, poor fit] | –
65 | O=C(COc1ccc(Cl)cc1Cl)NC(=S)Nc1ccccc1C(=O)O | 7.94 µM [falling, partial curve, poor fit] | –

No new results follow: entries from further up.
Row | Structure (SMILES) | AC50 [1] | AC50 [2]
7 | CC1CCC2(CC1)NC(=O)N(CC(=O)Nc1cccnc1Cl)C2=O (configuration not stated) | 2.31 µM [rising, partial curve, poor fit] | –
8 | CN(C)CCNc1ncnc2sc(-c3ccccc3)cc12 | 35.5 µM [falling, single point] | –
9 | O=C1CCCC(O)=C1N=Nc1ccc(C(=O)O)cc1 | 12.6 µM [falling, partial curve, poor fit] | –
10 | O=C(CSc1ccc(-c2ccc(F)cc2)nn1)N1CCCc2ccccc21 | 29.1 µM [falling, partial curve, poor fit] | –
11 | Fc1ccc(-c2nc3n(n2)Cc2ccccc2-3)cc1 | 18.4 µM [falling, single point] | –
